Test results from US20160220542A1, “SYNERGISTIC ACTIVITY OF MODULATORS OF THE NO METABOLISM AND OF NADPH OXIDASE IN THE SENSITISATION OF TUMOR CELLS” (Universitaetsklinikum Freiburg, priority 2010, published 2016).
Some results were stated once for a whole list of compounds, not compound by compound.

Test system: transformed rat fibroblast line 208Fsrc3
Assay: autocrine, ROS mediated apoptosis induction in transformed cells
Assay type: cell-based
Details: 208Fsrc3, 20 ng/ml TGF-beta-1, 22 hours
Description: 12 500 cells of the transformed rat fibroblast line 208Fsrc3 per 100 μl complete medium were sown in 96 hole plates. Following growth 20 ng/ml TGF-beta-1 were added to all preparations. To the preparations the stated concentrations of Cu SOD (from bovine erythroctes) or Mn SOD (from E. coli) were added. Some of the preparations received 50 mM of the HOCl receptor taurine (TAU), 150 μM of the peroxidase inhibitor 4-aminobenzoylhydrazide (ABH) or 10 mM of the hydroxyl radical scavenger mannitol. After 22 hours the percentages of apoptotic cells were determined on the basis of the conventional apoptosis characteristics of nuclear condensation, nuclear fragmentation or membrane blebbing in each case in duplicate preparations.

Substance: Cu SOD: Cu-containing superoxide dismutase from bovine erythroctes
- SOD concentration range leading to total inhibition of the apoptosis: below 5 U/ml
